Some of these results come from one statement about several compounds together.
target: T1, CRBN and Helios (IKZF2) (Homo sapiens, UniProt Q96SW2+Q9UKS7); experiment: TR-FRET dimerization assay (CRBN-IKZF2 ternary complex formation); format: binding; conditions: at 667 nM; highly active >1.0, inactive <0.1
T1 construct: His (N); Strep (N)
Experimental: A focused library of imide analogs was synthesized and assessed for their ability to induce dimerization between CRBN and Helios in a time-resolved fluorescence energy transfer (TR-FRET) assay (FIG. 1A).
Prior to TR-FRET measurements being conducted, the reactions were incubated for 15 min at rt. […] The TR-FRET signal of each data point was extracted by calculating the 520/490 nm ratios. Data from single measurements (n=1), each calculated as an average of at least three technical replicates per well per experiment are presented in Table 1.
BODIPY-labeled CRBN in complex with Damage Specific DNA Binding Protein 1 (DDB1) harboring an internal deletion of the flexible BPB propeller (DDB1AB-CRBN) and in vitro biotinylated IKZF2 were treated with increasing concentrations of the indicated compounds in the presence of tracer amounts of Terbium-Streptavidin (Tb-SA). Compound-induced recruitment of IKZF2 to CRBN was quantified following the 520/490 TR-FRET ratio using a PHERAstar® plate reader (BMG) utilizing two synchronized PMTs to reduce background.

Amino acid sequences for entries named in this document (tags omitted). A change or cut given only in a name is not applied to a line headed by its entry.
UniProt Q96SW2: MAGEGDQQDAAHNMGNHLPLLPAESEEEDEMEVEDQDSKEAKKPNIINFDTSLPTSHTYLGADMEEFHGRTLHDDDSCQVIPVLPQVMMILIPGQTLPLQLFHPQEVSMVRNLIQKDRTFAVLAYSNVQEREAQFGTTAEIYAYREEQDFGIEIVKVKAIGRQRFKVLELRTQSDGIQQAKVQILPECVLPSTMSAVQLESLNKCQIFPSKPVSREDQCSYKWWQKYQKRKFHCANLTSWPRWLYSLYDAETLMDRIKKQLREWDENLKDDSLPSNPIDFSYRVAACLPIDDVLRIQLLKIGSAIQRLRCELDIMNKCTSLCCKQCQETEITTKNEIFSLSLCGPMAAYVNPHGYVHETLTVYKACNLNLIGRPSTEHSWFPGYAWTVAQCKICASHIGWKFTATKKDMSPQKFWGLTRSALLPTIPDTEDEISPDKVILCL
UniProt Q9UKS7: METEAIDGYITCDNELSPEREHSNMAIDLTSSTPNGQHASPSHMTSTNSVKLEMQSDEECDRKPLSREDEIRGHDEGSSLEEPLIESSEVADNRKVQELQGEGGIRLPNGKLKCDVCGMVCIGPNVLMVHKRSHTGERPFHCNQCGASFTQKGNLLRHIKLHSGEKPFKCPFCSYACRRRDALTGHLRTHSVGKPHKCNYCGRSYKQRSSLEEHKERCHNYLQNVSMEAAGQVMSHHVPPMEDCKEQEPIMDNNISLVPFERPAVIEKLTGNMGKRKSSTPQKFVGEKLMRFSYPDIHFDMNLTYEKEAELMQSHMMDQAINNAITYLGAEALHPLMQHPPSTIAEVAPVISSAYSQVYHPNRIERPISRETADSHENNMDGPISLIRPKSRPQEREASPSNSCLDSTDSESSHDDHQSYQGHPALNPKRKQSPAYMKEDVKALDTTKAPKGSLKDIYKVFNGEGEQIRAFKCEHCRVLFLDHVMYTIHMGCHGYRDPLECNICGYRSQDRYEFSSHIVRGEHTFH

| SMILES | TR-FRET in the dimerization assay [A.U.] |
| --- | --- |
| Cc1ccc(NC(=O)NCc2cccc(NC3=CC(=O)N(C4CCC(=O)NC4=O)C3=O)c2)cc1Cl (stereo not shown) [Compound 44, 1-(3-chloro-4-methylphenyl)-3-(3-((1-(2,6-dioxopiperidin-3-yl)-2,5-dioxo-2,5-dihydro-1H-pyrrol-3-yl)amino)benzyl)urea] | > 1.0 |
| Cc1ccc(NC(=O)OCc2cccc(NC3=CC(=O)N(C4CCC(=O)NC4=O)C3=O)c2)cc1Cl (stereo not shown) [Compound 48, 3-((1-(2,6-dioxopiperidin-3-yl)-2,5-dioxo-2,5-dihydro-1H-pyrrol-3-yl)amino)benzyl (3-chloro-4-methylphenyl)carbamate] | < 0.1 |
| Cc1ccc(NC(=O)N(C)Cc2cccc(NC3=CC(=O)N(C4CCC(=O)NC4=O)C3=O)c2)cc1Cl (stereo not shown) [Compound 52, 3-(3-chloro-4-methylphenyl)-1-(3-((1-(2,6-dioxopiperidin-3-yl)-2,5-dioxo-2,5-dihydro-1H-pyrrol-3-yl)amino)benzyl)-1-methylurea] | > 1.0 |
| Cc1ccc(NC(=O)NC(C)c2cccc(NC3=CC(=O)N(C4CCC(=O)NC4=O)C3=O)c2)cc1Cl (stereo not shown) [Compound 54, 1-(3-chloro-4-methylphenyl)-3-(1-(3-((1-(2,6-dioxopiperidin-3-yl)-2,5-dioxo-2,5-dihydro-1H-pyrrol-3-yl)amino)phenyl)ethyl)urea] | > 1.0 |
| O=C1CCC(N2C(=O)C=C(Nc3cccc(CNC(=O)Nc4ccc(Cl)c(Cl)c4)c3)C2=O)C(=O)N1 (stereo not shown) [Compound 59, 1-(3,4-dichlorophenyl)-3-(3-((1-(2,6-dioxopiperidin-3-yl)-2,5-dioxo-2,5-dihydro-1H-pyrrol-3-yl)amino)benzyl)urea] | > 1.0 |
| O=C(Cc1ccc(Cl)c(Cl)c1)NCc1cccc(NC2=CC(=O)N(C3CCC(=O)NC3=O)C2=O)c1 (stereo not shown) [Compound 61, 2-(3,4-dichlorophenyl)-N-(3-((1-(2,6-dioxopiperidin-3-yl)-2,5-dioxo-2,5-dihydro-1H-pyrrol-3-yl)amino)benzyl)acetamide] | > 1.0 |
| Cc1ccc(NC(=O)NCCc2cccc(NC3=CC(=O)N(C4CCC(=O)NC4=O)C3=O)c2)cc1Cl (stereo not shown) [Compound 62, 1-(3-chloro-4-methylphenyl)-3-(3-((1-(2,6-dioxopiperidin-3-yl)-2,5-dioxo-2,5-dihydro-1H-pyrrol-3-yl)amino)phenethyl)urea] | > 1.0 |
| Cc1ccc(NC(=O)NCc2cccc(OC3=CC(=O)N(C4CCC(=O)NC4=O)C3=O)c2)cc1Cl (stereo not shown) [Compound 64, 1-(3-chloro-4-methylphenyl)-3-(3-((1-(2,6-dioxopiperidin-3-yl)-2,5-dioxo-2,5-dihydro-1H-pyrrol-3-yl)oxy)benzyl)urea] | < 0.1 |
| Cc1ccc(NC(=O)NC(C)(C)c2cccc(NC3=CC(=O)N(C4CCC(=O)NC4=O)C3=O)c2)cc1Cl (stereo not shown) [Compound 69, 1-(3-chloro-4-methylphenyl)-3-(2-(3-((1-(2,6-dioxopiperidin-3-yl)-2,5-dioxo-2,5-dihydro-1H-pyrrol-3-yl)amino)phenyl)propan-2-yl)urea] | > 1.0 |
| Cc1ccc(NC(=O)N[C@H](C)c2cccc(NC3=CC(=O)N(C4CCC(=O)NC4=O)C3=O)c2)cc1Cl (stereo partly drawn) [Compound 70, 1-(3-chloro-4-methylphenyl)-3-((1R)-1-(3-((1-(2,6-dioxopiperidin-3-yl)-2,5-dioxo-2,5-dihydro-1H-pyrrol-3-yl)amino)phenyl)ethyl)urea] | > 1.0 |
| Cc1ccc(NC(=O)N[C@@H](C)c2cccc(NC3=CC(=O)N(C4CCC(=O)NC4=O)C3=O)c2)cc1Cl (stereo partly drawn) [Compound 71, 1-(3-chloro-4-methylphenyl)-3-((1S)-1-(3-((1-(2,6-dioxopiperidin-3-yl)-2,5-dioxo-2,5-dihydro-1H-pyrrol-3-yl)amino)phenyl)ethyl)urea] | > 1.0 |
| CCC(NC(=O)Nc1ccc(C)c(Cl)c1)c1cccc(NC2=CC(=O)N(C3CCC(=O)NC3=O)C2=O)c1 (stereo not shown) [Compound 74, 1-(3-chloro-4-methylphenyl)-3-(1-(3-((1-(2,6-dioxopiperidin-3-yl)-2,5-dioxo-2,5-dihydro-1H-pyrrol-3-yl)amino)phenyl)propyl)urea] | > 1.0 |
| Cc1ccc(NC(=O)NC(CC(=O)N(C)C)c2cccc(NC3=CC(=O)N(C4CCC(=O)NC4=O)C3=O)c2)cc1Cl (stereo not shown) [Compound 76, 3-(3-(3-chloro-4-methylphenyl)ureido)-3-(3-((1-(2,6-dioxopiperidin-3-yl)-2,5-dioxo-2,5-dihydro-1H-pyrrol-3-yl)amino)phenyl)-N,N-dimethylpropanamide] | > 1.0 |
| Cc1ccc(NC(=O)N2Cc3ccc(NC4=CC(=O)N(C5CCC(=O)NC5=O)C4=O)cc3C2)cc1Cl (stereo not shown) [Compound 107, N-(3-chloro-4-methylphenyl)-5-((1-(2,6-dioxopiperidin-3-yl)-2,5-dioxo-2,5-dihydro-1H-pyrrol-3-yl)amino)isoindoline-2-carboxamide] | < 0.1 |
| Cc1ccc(NC(=O)NCc2cc(NC(=O)N(C)C)cc(NC3=CC(=O)N(C4CCC(=O)NC4=O)C3=O)c2)cc1Cl (stereo not shown) [Compound 112, 3-(3-((3-(3-chloro-4-methylphenyl)ureido)methyl)-5-((1-(2,6-dioxopiperidin-3-yl)-2,5-dioxo-2,5-dihydro-1H-pyrrol-3-yl)amino)phenyl)-1,1-dimethylurea] | < 0.1 |
| Cc1ccc(CNC(=O)CCc2cccc(NC3=CC(=O)N(C4CCC(=O)NC4=O)C3=O)c2)cc1Cl (stereo not shown) [Compound 121, N-(3-chloro-4-methylbenzyl)-3-(3-((1-(2,6-dioxopiperidin-3-yl)-2,5-dioxo-2,5-dihydro-1H-pyrrol-3-yl)amino)phenyl)propanamide] | > 1.0 |
| Cc1ccc(NC(=O)Nc2cccc3c(NC4=CC(=O)N(C5CCC(=O)NC5=O)C4=O)cccc23)cc1Cl (stereo not shown) [Compound 124, 1-(3-chloro-4-methylphenyl)-3-(5-((1-(2,6-dioxopiperidin-3-yl)-2,5-dioxo-2,5-dihydro-1H-pyrrol-3-yl)amino)naphthalen-1-yl)urea] | < 0.1 |
| Cc1ccc(NC(=O)NCCc2cccc(NC3=CC(=O)N(C4CCC(=O)NC4=O)C3=O)c2)cc1C(F)(F)F (stereo not shown) [Compound 126, 1-(3-((1-(2,6-dioxopiperidin-3-yl)-2,5-dioxo-2,5-dihydro-1H-pyrrol-3-yl)amino)phenethyl)-3-(4-methyl-3-(trifluoromethyl)phenyl)urea] | > 1.0 |
| Cc1ccc(N(C)C(=O)CCc2cccc(NC3=CC(=O)N(C4CCC(=O)NC4=O)C3=O)c2)cc1Cl (stereo not shown) [Compound 127, N-(3-chloro-4-methylphenyl)-3-(3-((1-(2,6-dioxopiperidin-3-yl)-2,5-dioxo-2,5-dihydro-1H-pyrrol-3-yl)amino)phenyl)-N-methylpropanamide] | > 1.0 |
| O=C1CCC(N2C(=O)C=C(Nc3cccc(CCC(=O)Nc4ccc(C(F)(F)F)c(Cl)c4)c3)C2=O)C(=O)N1 (stereo not shown) [Compound 129, N-(3-chloro-4-(trifluoromethyl)phenyl)-3-(3-((1-(2,6-dioxopiperidin-3-yl)-2,5-dioxo-2,5-dihydro-1H-pyrrol-3-yl)amino)phenyl)propanamide] | > 1.0 |
| Cc1ccc(NC(=O)CC(C)c2cccc(NC3=CC(=O)N(C4CCC(=O)NC4=O)C3=O)c2)cc1Cl (stereo not shown) [Compound 137] | > 1.0 |
| CC(CC(=O)Nc1cccc(C(F)(F)F)c1)c1cccc(NC2=CC(=O)N(C3CCC(=O)NC3=O)C2=O)c1 (stereo not shown) [Compound 140, 3-(3-((1-(2,6-dioxopiperidin-3-yl)-2,5-dioxo-2,5-dihydro-1H-pyrrol-3-yl)amino)phenyl)-N-(3-(trifluoromethyl)phenyl)butanamide] | > 1.0 |

— US12227488B2, “Small molecule degraders of Helios and methods of use” (DANA-FARBER CANCER INSTITUTE, INC., priority 2018, dated 2025)
